In PMC8225811:
No constants are given. Whether binding was seen depends on the method and setting. Binding seen in cells or lysates may run through a third protein. Some entries that bind do so weakly or less than the wild type. For some assays here: Sequences can lack the tags named with a protein.

Amino acid sequences for entries named in this document (tags omitted).
UniProt P01106: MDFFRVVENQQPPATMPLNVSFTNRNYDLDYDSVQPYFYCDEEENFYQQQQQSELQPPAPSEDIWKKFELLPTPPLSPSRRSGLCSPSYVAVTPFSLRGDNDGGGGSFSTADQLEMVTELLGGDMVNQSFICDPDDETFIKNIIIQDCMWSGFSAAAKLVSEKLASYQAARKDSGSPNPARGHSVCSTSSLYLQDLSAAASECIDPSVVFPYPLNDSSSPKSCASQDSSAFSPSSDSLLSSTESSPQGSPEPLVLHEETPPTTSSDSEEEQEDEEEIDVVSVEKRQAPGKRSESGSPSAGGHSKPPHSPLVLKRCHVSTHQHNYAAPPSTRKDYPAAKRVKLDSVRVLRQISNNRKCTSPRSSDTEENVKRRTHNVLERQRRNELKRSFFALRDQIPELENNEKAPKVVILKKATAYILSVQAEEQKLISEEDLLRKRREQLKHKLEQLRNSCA

Tests used:
[1] = biological target: Flag-c-Myc (c-Myc, Flag-tagged, overexpressed) (UniProt P01106); experiment: co-IP; A549 and PC9 cells co-transfected with His-SNIP1 and Flag-c-Myc; IP with anti-Flag (c-Myc) antibody and, in turn, with anti-His (SNIP1) antibody on protein A/G magnetic beads; GLB+ lysis buffer (150 mM NaCl, 10 mM Tris-HCl pH 7.5, 0.5% Triton X-100, 10 mM EDTA pH 8.0); also done after knockdown of lncRNA AFAP1-AS1 (interaction significantly weakened)
[2] = biological target: c-Myc (endogenous) (human (endogenous in A549 and PC9)) (UniProt P01106); experiment: co-IP; endogenous proteins in A549 and PC9 lysates; antibody on protein A/G magnetic beads; GLB+ lysis buffer (150 mM NaCl, 10 mM Tris-HCl pH 7.5, 0.5% Triton X-100, 10 mM EDTA pH 8.0); also done after knockdown of lncRNA AFAP1-AS1 (interaction weakened)

Row | binding [1] | binding [2] | Binder
1 | binds |  | His-SNIP1 (Smad nuclear interacting protein 1, His-tagged, overexpressed) (protein, UniProt Q8TAD8 1-396) MKAVKSERERGSRRRHRDGDVVLPAGVVVKQERLSPEVAPPAHRRPDHSGGSPSPPTSEPARSGHRGNRARGVSRSPPKKKNKASGRRSKSPRSKRNRSPHHSTVKVKQEREDHPRRGREDRQHREPSEQEHRRARNSDRDRHRGHSHQRRTSNERPGSGQGQGRDRDTQNLQAQEEEREFYNARRREHRQRNDVGGGGSESQELVPRPGGNNKEKEVPAKEKPSFELSGALLEDTNTFRGVVIKYSEPPEARIPKKRWRLYPFKNDEVLPVMYIHRQSAYLLGRHRRIADIPIDHPSCSKQHAVFQYRLVEYTRADGTVGRRVKPYIIDLGSGNGTFLNNKRIEPQRYYELKEKDVLKFGFSSREYVLLHESSDTSEIDRKDDEDEEEEEEVSDS
2 |  | binds | SNIP1 (endogenous) (protein, UniProt Q8TAD8 1-396) MKAVKSERERGSRRRHRDGDVVLPAGVVVKQERLSPEVAPPAHRRPDHSGGSPSPPTSEPARSGHRGNRARGVSRSPPKKKNKASGRRSKSPRSKRNRSPHHSTVKVKQEREDHPRRGREDRQHREPSEQEHRRARNSDRDRHRGHSHQRRTSNERPGSGQGQGRDRDTQNLQAQEEEREFYNARRREHRQRNDVGGGGSESQELVPRPGGNNKEKEVPAKEKPSFELSGALLEDTNTFRGVVIKYSEPPEARIPKKRWRLYPFKNDEVLPVMYIHRQSAYLLGRHRRIADIPIDHPSCSKQHAVFQYRLVEYTRADGTVGRRVKPYIIDLGSGNGTFLNNKRIEPQRYYELKEKDVLKFGFSSREYVLLHESSDTSEIDRKDDEDEEEEEEVSDS
